# PubChem BioAssay AID1259425 | University of Nebraska Medical Center, 2018
# Screen: 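Compare each knockdown with KSR1 silencing using changes in marker transcripts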 (primary screen)
# Cells: HCT116 human colon cancer cells
# Knock-down reagent: siRNA pool against human genes, 50 nM siRNA
# Measured: 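After 50 nM siRNA pool, branched-DNA assay measures six marker transcripts per well, minus blank, normalised to the geometric mean of two housekeeping transcripts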
# Scale: BNIP3L mRNA: higher = more BNIP3L transcript after knockdown; NDRG1 mRNA: higher = more NDRG1 transcript after knockdown; BNIP3 mRNA: higher = more BNIP3 transcript after knockdown; ALDOC mRNA: higher = more ALDOC transcript after knockdown; ACSL5 mRNA: higher = more ACSL5 transcript after knockdown
# In all, the deposit lists about 14,000 reagents; this is an unselected part. Not given: the time to read-out.
Target gene,"BNIP3L mRNA, set 1","NDRG1 mRNA, set 1","BNIP3 mRNA, set 1","ALDOC mRNA, set 1","ACSL5 mRNA, set 1"
ST6GALNAC6,0.18,0.268,0.315,0.0351,0.201
SSX2,0.0455,0.135,0.211,0.0512,0.144
ROM1,0.127,0.227,0.28,0.0416,0.163
GLA,0.163,0.125,0.192,0.053,0.228
REM1,0.0872,0.0989,0.36,0.0259,0.192
DSPP,0.203,0.154,0.261,0.0524,0.129
ARHGAP42,0.0818,0.444,0.294,0.00753,0.228
TLCD3A,0.111,0.172,0.296,0.022,0.252
PPT1,0.12,0.112,0.272,0.0243,0.0934
STRN,0.152,0.0849,0.208,0.0154,0.134
FUCA1,0.0912,0.154,0.263,0.0292,0.162
CALM1,0.102,0.104,0.388,0.0342,0.14
IL3RA,0.0965,0.163,0.372,0.0147,0.201
IFNA4,0.123,0.397,0.267,0.0183,0.219
SPINK5,0.0899,0.183,0.307,0.0178,0.22
HGS,0.141,0.323,0.303,0.0238,0.214
HTR1D,0.138,0.0777,0.254,0.0217,0.15
TNFSF13,0.0544,0.158,0.322,0.019,0.203
PPP6C,0.0707,0.278,0.265,0.0169,0.165
FFAR4,0.121,0.136,0.322,0.0182,0.135
PCDHB11,0.0376,0.277,0.538,0.00503,0.197

Targets listed so far whose target name starts with P or p:
Target gene,"BNIP3L mRNA, set 1","NDRG1 mRNA, set 1","BNIP3 mRNA, set 1","ALDOC mRNA, set 1","ACSL5 mRNA, set 1"
PPT1,0.12,0.112,0.272,0.0243,0.0934
PPP6C,0.0707,0.278,0.265,0.0169,0.165
PCDHB11,0.0376,0.277,0.538,0.00503,0.197

The list goes on:
Target gene,"BNIP3L mRNA, set 1","NDRG1 mRNA, set 1","BNIP3 mRNA, set 1","ALDOC mRNA, set 1","ACSL5 mRNA, set 1"
TPM1,0.0471,0.189,0.263,0.0171,0.152
BAK1,0.18,0.148,0.36,0.0333,0.256
FUS,0.0926,0.225,0.338,0.0225,0.122
NPAS4,0.0915,0.132,0.227,0.0203,0.0832
DYNC2LI1,0.0573,0.393,0.228,0.00906,0.257
VASH2,0.168,0.499,0.276,0.0521,0.217
ADCY5,0.0669,0.189,0.198,0.0374,0.12
GRN,0.0924,0.268,0.225,0.0566,0.083
DPCD,0.179,0.169,0.369,0.0714,0.0741
IL1R2,0.0859,0.171,0.282,0.07,0.0894
OSBP,0.1,0.111,0.307,0.0239,0.279
MRPL46,0.14,0.14,0.258,0.0337,0.133
NPHP1,0.141,0.281,0.493,0.0745,0.183
BDNF,0.103,0.479,0.273,0.0274,0.225
CPED1,0.175,0.2,0.191,0.0465,0.134
HOOK2,0.0416,0.0694,0.299,0.02,0.0591
CLASP2,0.08,0.0844,0.284,0.0206,0.102
WASHC2A,0.086,0.0283,0.112,0.0222,0.0991
SLC5A4,0.108,0.324,0.321,0.0521,0.151
CREB3L3,0.245,0.452,0.452,0.205,0.266
LMCD1,0.0943,0.0587,0.294,0.0313,0.138
RAB27A,0.073,0.122,0.291,0.0275,0.134
SNRNP35,0.0859,0.191,0.204,0.0508,0.136
TMCO1,0.104,0.116,0.386,0.026,0.108
HCAR1,0.133,0.549,0.332,0.014,0.172
SON,0.19,0.905,0.137,0.0556,0.365
USH1C,0.0736,0.205,0.28,0.0107,0.267
FUZ,0.497,0.523,0.742,0.134,0.38
JMJD7-PLA2G4B,0.1,0.144,0.239,0.0242,0.244
